Binding data for 4 molecules are collected here from publication doi:10.1101/2024.06.28.601222.

The chains behind the UniProt entries cited, without tags or fusion partners. Where a name states a change or a piece, a line headed by the entry shows the natural chain unless it says otherwise.
UniProt Q39025: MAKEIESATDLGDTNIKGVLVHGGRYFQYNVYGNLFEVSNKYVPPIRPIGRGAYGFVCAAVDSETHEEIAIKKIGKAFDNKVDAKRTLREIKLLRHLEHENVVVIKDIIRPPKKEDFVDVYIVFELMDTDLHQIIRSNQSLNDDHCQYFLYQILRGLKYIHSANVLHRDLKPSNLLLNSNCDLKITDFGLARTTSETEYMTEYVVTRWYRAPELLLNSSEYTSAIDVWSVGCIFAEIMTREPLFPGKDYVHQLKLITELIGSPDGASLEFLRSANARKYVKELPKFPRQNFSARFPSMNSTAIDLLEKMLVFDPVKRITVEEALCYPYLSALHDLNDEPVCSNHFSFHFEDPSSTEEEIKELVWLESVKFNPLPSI

Test [1] has as its target T1, GRF4 fused to the C-terminus part of Venus (from pBi2FC-C-GRF4-P2A:mTagBFP2) (Arabidopsis) (UniProt P46077).
T1 sequence: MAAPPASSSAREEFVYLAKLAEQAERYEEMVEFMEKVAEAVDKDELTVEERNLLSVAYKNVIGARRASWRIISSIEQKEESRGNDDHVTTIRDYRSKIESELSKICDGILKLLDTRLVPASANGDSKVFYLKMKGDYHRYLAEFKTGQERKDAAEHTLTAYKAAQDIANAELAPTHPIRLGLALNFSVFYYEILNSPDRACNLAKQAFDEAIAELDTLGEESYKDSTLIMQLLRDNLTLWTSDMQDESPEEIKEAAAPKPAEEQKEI
The experiment in a line: split reporter.

Test [2] deals with T2, GRF4 fused to the C-terminus part of Venus (from pBi2FC-C-GRF4-P2A:mTagBFP2) (Arabidopsis), P46077.
T2 chain: T1 sequence
The experiment in a line: split reporter. As to conditions: remark: other sources report otherwise.

No constants are given. Whether binding was seen depends on the method and setting. Binding seen in cells or lysates may run through a third protein. Some binding calls cover weakened binding; strength is not graded here. Where a sequence is shown, tags or fusion partners need not be part of it.

On to “MPK5 fused to the N-terminus part of Venus (from pBi2FC-N-MPK5-P2A:mCherry) (from UniProt Q39025 1-376)”, for which the binding result in test [1] is recorded as “binds”.

B1: MPK12 fused to the N-terminus part of Venus (from pBi2FC-N-MPK12-P2A:mCherry) (protein, UniProt Q8GYQ5 1-372)
chain: MSGESSSGSTEHCIKVVPTHGGRYVQYNVYGQLFEVSRKYVPPIRPIGRGACGIVCAAVNSVTGEKVAIKKIGNAFDNIIDAKRTLREIKLLRHMDHENVITIKDIVRPPQRDIFNDVYIVYELMDTDLQRILRSNQTLTSDQCRFLVYQLLRGLKYVHSANILHRDLRPSNVLLNSKNELKIGDFGLARTTSDTDFMTEYVVTRWYRAPELLLNCSEYTAAIDIWSVGCILGEIMTGQPLFPGKDYVHQLRLITELVGSPDNSSLGFLRSDNARRYVRQLPRYPKQQFAARFPKMPTTAIDLLERMLVFDPNRRISVDEALGHAYLSPHHDVAKEPVCSTPFSFDFEHPSCTEEHIKELIYKESVKFNPDH
Consider B1, for which, in test [1], the binding result is listed as “no binding”.

B2: MPK6 fused to the N-terminus part of Venus (from pBi2FC-N-MPK6-P2A:mCherry), Q39026 1-395 (protein)
chain: MDGGSGQPAADTEMTEAPGGFPAAAPSPQMPGIENIPATLSHGGRFIQYNIFGNIFEVTAKYKPPIMPIGKGAYGIVCSAMNSETNESVAIKKIANAFDNKIDAKRTLREIKLLRHMDHENIVAIRDIIPPPLRNAFNDVYIAYELMDTDLHQIIRSNQALSEEHCQYFLYQILRGLKYIHSANVLHRDLKPSNLLLNANCDLKICDFGLARVTSESDFMTEYVVTRWYRAPELLLNSSDYTAAIDVWSVGCIFMELMDRKPLFPGRDHVHQLRLLMELIGTPSEEELEFLNENAKRYIRQLPPYPRQSITDKFPTVHPLAIDLIEKMLTFDPRRRITVLDALAHPYLNSLHDISDEPECTIPFNFDFENHALSEEQMKELIYREALAFNPEYQQ
Consider B2, for which the binding entry in test [2] is “binds”.

B3: MPK8 fused to the N-terminus part of Venus (from pBi2FC-N-MPK8-P2A:mCherry) (protein, UniProt Q9LM33 1-589)
chain: MGGGGNLVDGVRRWLFQRPSSSSSSSSSNNNNNNHEQPIFNSSSFSSSSNPNHSANSGELIIEEDLDFSGLTLINVPKRNHLPMDPHKKGETEFFTEYGEANRYQIQEVVGKGSYGVVASAVDSHTGERVAIKKINDVFEHVSDATRILREIKLLRLLRHPDVVEIKHIMLPPSRREFRDIYVVFELMESDLHQVIKANDDLTPEHYQFFLYQLLRGLKYVHAANVFHRDLKPKNILANADCKLKICDFGLARVSFNDAPTAIFWTDYVATRWYRAPELCGSFFSKYTPAIDIWSVGCIFAEMLLGKPLFPGKNVVHQLDLMTDFLGTPPPESISRIRNEKARRYLSSMRKKQPVPFSHKFPKADPLALRLLERLLAFDPKDRASAEDALADPYFSGLSNSEREPTTQPISKLEFDFERKKLVKDDVRELIYREILEYHPQMLEEYLRGGDQLSFMYPSGVDRFKRQFAHLEENQGKPGAAGGGRSTALHRHHASLPRERVPAPNGETAEESSDVERRAAAAVASTLESEEADNGGGYSARNLMKSASISGSKCIGVQSKTDKEDTIAEEEDNETVAELTDKVASLHNS
In the case of B3, in test [1], the binding entry is listed as “binds”.
